Data as given in PubChem BioAssay AID652272 (Drosophila RNAi Screening Center, 2013)

- Screen: 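Finding fly genes that regulate Hedgehog signal transduction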 (primary screen)
- Cell system: Drosophila clone 8 (Cl8) cells
- Reagents: long dsRNA against Drosophila genes
- Measured: 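Plate reader light from a firefly reporter under a ptc promoter fragment that responds to Hedgehog, with Renilla light as transfection reference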
- Scale: firefly Hh reporter signal: higher = more ptc reporter light; Renilla reference signal: higher = more Renilla control light
- Hit rule: 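Called a hit if the two-replicate mean z-score lies below -2 or above +3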
- Meaning of the calls: active = hit: reporter lowered or raised; inactive = not a hit
In all, the deposit lists about 21,000 reagents; this is an unselected part of those that have a named target and a result. Over the whole deposit, 503 (2.4%) are marked active. 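Raw plate light values, not normalised; calls rest on replicate z-scores that were not deposited; hits include reporter decreases as well as increases.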 Entries without a mark were called inactive. Not stated in the record: the amount of reagent, the time to read-out.

gene knocked down | amplicon | firefly Hh reporter signal, replicate 1 | firefly Hh reporter signal, replicate 2 | firefly Hh reporter signal, replicate 3 | Renilla reference signal, replicate 1 | Renilla reference signal, replicate 2
CG9281 | DRSC20179 | 1.09e5 | 70829 | – | 2800 | 2313
Rab18 | DRSC18702 | 81302 | 77680 | – | 1968 | 2348
Sirt6 (Sirtuin 6) | DRSC16010 | 40483 | 83104 | – | 1184 | 2512
CG18581 | DRSC10324 | 91120 | – | – | 4016 | 2413
Pgam5 (Phosphoglycerate mutase 5) | DRSC18551 | 1.36e5 | 1.01e5 | – | 2960 | 2898
Snx1 (Sorting nexin 1) | DRSC00531 | 95169 | 81824 | – | 2049 | 6458
GstE7 (Glutathione S transferase E7) | DRSC06677 | 1.12e5 | 1.07e5 | – | 5830 | 4611
PolE1 (DNA polymerase epsilon subunit 1) | DRSC16112 | 82151 | 65909 | – | 3991 | 2819
CG10646 | DRSC09764 | 6.07e5 | 96794 | – | 4008 | 4008
CG11162 | DRSC19391 | 1.84e5 | 3.96e5 | – | 5168 | 15433
gprs | DRSC06761 | 87187 | 38998 | – | 2370 | 2874
CG14538 (retired record) | DRSC02396 | 98326 | 57048 | – | 2284 | 5351
Tdh (L-threonine dehydrogenase) | DRSC11788 | 1.26e5 | 83500 | – | 4345 | 2961
CG14113 | DRSC10116 | 30729 | 54690 | 47628 | 4864 | 3315
MTF-1 (Metal response element-binding Transcription Factor-1) | DRSC08983 | 1.04e5 | 2.02e5 | – | 2944 | 8480
MTF-1 (Metal response element-binding Transcription Factor-1) | DRSC11217 | 17269 | 57275 | 8.24e5 | 5819 | 4273
Doa (Darkener of apricot) | DRSC13892 | 43511 | 2.97e5 | – | 12325 | 6576
Doa (Darkener of apricot) | DRSC13893 | 49216 | 2.08e5 | – | 13592 | 4692
Doa (Darkener of apricot) | DRSC13895 | 47995 | 3.00e5 | – | 13060 | 6888
Doa (Darkener of apricot) | DRSC13896 | 44535 | 2.84e5 | – | 11636 | 6022
Doa (Darkener of apricot) | DRSC13897 | 37296 | 2.60e5 | – | 9793 | 6356
Doa (Darkener of apricot) | DRSC16650 | 80518 | 1.53e5 | – | 2117 | 4456
CG2691 | DRSC19866 | 80284 | 65850 | – | 1626 | 1008
Sec61beta (Sec61 beta subunit) | DRSC07548 | 1.42e5 | 5.79e5 | 60944 | 3773 | 36066
Muc96D (Mucin 96D) | DRSC13709 | 48992 | 7.71e5 | 3.91e5 | 13590 | 6333
CG42820 | DRSC02265 | 74059 | 53418 | – | 1500 | 5787
CG9259 | DRSC03174 | 79616 | 58065 | – | 1776 | 5157
CG10209 | DRSC05980 | 93289 | 73441 | – | 4595 | 3137
Sec20 (Secretory 20) | DRSC12295 | 82865 | 1.15e5 | – | 3005 | 3261
Jon25Bi (Jonah 25Bi) | DRSC03434 | 1.05e5 | 49971 | – | 2868 | 5205
hwt (heavyweight) | DRSC19386 | 4.57e5 | 71940 | – | 3472 | 3472
hwt (heavyweight) | DRSC19695 | 1.14e5 | 1.77e5 | – | 3910 | 6531
dob (doppelganger von brummer) | DRSC19948 | 1.50e5 | 97010 | – | 3562 | 2293
Spx (Spliceosomal protein on the X) | DRSC18720 | 41781 | 1.16e5 | – | 2144 | 6760
trn (tartan) | DRSC11407 | 33851 | 55596 | 66416 | 6075 | 4217
CG12182 | DRSC08142 | 80560 | 77002 | – | 2969 | 2496

The list goes on, starting with the last 2 of the part before.
gene knocked down | amplicon | firefly Hh reporter signal, replicate 1 | firefly Hh reporter signal, replicate 2 | firefly Hh reporter signal, replicate 3 | Renilla reference signal, replicate 1 | Renilla reference signal, replicate 2
trn (tartan) | DRSC11407 | 33851 | 55596 | 66416 | 6075 | 4217
CG12182 | DRSC08142 | 80560 | 77002 | – | 2969 | 2496
CG5835 | DRSC15886 | 4.69e5 | 94165 | – | 28528 | 1991
CG14301 | DRSC14780 | 5.57e5 | 1.39e5 | – | 29821 | 4073
CG2701 | DRSC18590 | 1.14e5 | 81378 | – | 2555 | 2749
s-cup (stanley-cup) | DRSC06277 | 34375 (active) | 21442 | – | 1329 | 3037
s-cup (stanley-cup) | DRSC06278 | 1.04e5 | 53424 | – | 2924 | 4738
Tssk (Testis-specific serine/threonine kinase) | DRSC14784 | 6.08e5 | 93593 | – | 29384 | 2664
Arv1 (ACAT-related protein required for viability 1) | DRSC11491 | 3.54e5 | – | – | 7258 | –
bchs (blue cheese) | DRSC03126 | 85413 | 41978 | – | 2119 | 3702
Stt3A | DRSC20514 | 1.12e5 | 1.31e5 | – | 2695 | 3021
tefu (telomere fusion) | DRSC16060 | 58225 | 75180 | – | 2280 | 2195
Cpr64Ac (Cuticular protein 64Ac) | DRSC08462 | 79140 | 53543 | – | 2228 | 3955
CG7601 | DRSC14131 | 83660 | 1.17e5 | – | 1840 | 2889
wwk (white walker) | DRSC01941 | 1.22e5 | 68960 | – | 3013 | 6376
mon2 (monensin sensitivity 2) | DRSC03112 | 82707 | 53721 | – | 2953 | 4666
Lsp1gamma (Larval serum protein 1 gamma) | DRSC08672 | 69197 | 62819 | – | 3340 | 2592
nenya | DRSC13838 | 44379 | 1.69e5 | – | 12528 | 3923
CNMaR (CNMamide Receptor) | DRSC08992 | 75500 | 1.55e5 | – | 2068 | 6669
CNMaR (CNMamide Receptor) | DRSC10224 | 30311 | 44416 | 52472 | 4579 | 3673
phyl (phyllopod) | DRSC07663 | 91306 | 60696 | – | 2437 | 4281
CG7903 | DRSC16338 | 1.02e5 | 1.27e5 | – | 4274 | 4073
spen (split ends) | DRSC00839 | 1.15e5 | 67856 | – | 4778 | 3511
